PubChem BioAssay AID1259308, NCATS, 2017

- Test: 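Knock-downs that increase output of a recombinant reporter protein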 (primary screen)
- Cell system: human HEK293 embryonic kidney cells stably expressing firefly luciferase (HEK-CMV-Luc2-Hygro)
- Reagents: single siRNA against human genes, 0.8 pmol siRNA per well
- Time to read-out: 72 h
- Measurement: 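Reporter luminescence and viable-cell signal on separate replicate plates, given as percent of non-targeting control and median/MAD z-scores, plus per-cell luciferase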
- Reading the numbers: total luciferase, z-score and total luciferase, % of control: higher = more reporter protein produced; luciferase per cell, z-score: higher = more reporter output per viable cell; viable cells, % of control: higher = more viable cells
- Rule for the call: 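Active when the median/MAD z-score for overall luciferase is greater than 3; a gene was taken forward for validation with new siRNAs if at least two of its three siRNAs passed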
- Calls: active = raised luciferase; inactive = no rise
The whole screen tested about 59,000 reagents; shown is an unselected part. About 1,510 of them (2.6%) count as active. 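Calls use total luciferase alone and ignore viability, so some active siRNAs may act by altering cell number.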 The numbers tell different reagents against one gene apart.

target | siRNA no. | total luciferase, z-score | total luciferase, % of control | luciferase per cell, z-score | viable cells, % of control | Outcome
CSNK2A2 (casein kinase 2 alpha 2) | 1 | 0.502 | 91.9 | 0.658 | 86.3 | inactive
CSNK2A2 (casein kinase 2 alpha 2) | 2 | -0.0979 | 79.9 | -0.282 | 96.2 | inactive
CSNK2A2 (casein kinase 2 alpha 2) | 3 | -0.535 | 71.3 | -0.193 | 83.8 | inactive
EPN2 (epsin 2) | 1 | -1.61 | 49.8 | -0.62 | 65.6 | inactive
EPN2 (epsin 2) | 2 | -0.526 | 71.4 | -0.259 | 85.5 | inactive
EPN2 (epsin 2) | 3 | 0.206 | 86 | -0.167 | 100 | inactive
FUT1 (fucosyltransferase 1 (H blood group)) | 1 | -0.344 | 75.1 | -0.291 | 90.5 | inactive
FUT1 (fucosyltransferase 1 (H blood group)) | 2 | -2.1 | 40.1 | -1.84 | 72.8 | inactive
FUT1 (fucosyltransferase 1 (H blood group)) | 3 | -1.52 | 51.7 | -2.06 | 99.3 | inactive
DGKG (diacylglycerol kinase gamma) | 1 | -1.1 | 60 | -1.5 | 99.6 | inactive
DGKG (diacylglycerol kinase gamma) | 2 | 0.45 | 90.8 | 0.0529 | 100 | inactive
DGKG (diacylglycerol kinase gamma) | 3 | 0 | 81.9 | -0.708 | 110 | inactive
DHRS4 (dehydrogenase/reductase 4) | 1 | -0.29 | 76.1 | -0.0679 | 86.6 | inactive
DHRS4 (dehydrogenase/reductase 4) | 2 | 0.0574 | 83 | 0.223 | 87.5 | inactive
DHRS4 (dehydrogenase/reductase 4) | 3 | -0.439 | 73.1 | -0.605 | 95.9 | inactive
EBNA1BP2 (EBNA1 binding protein 2) | 1 | -1.25 | 57.1 | -0.699 | 76.7 | inactive
EBNA1BP2 (EBNA1 binding protein 2) | 2 | -1.47 | 52.6 | -1.54 | 88.1 | inactive
EBNA1BP2 (EBNA1 binding protein 2) | 3 | -1.65 | 49.2 | -1.84 | 89.2 | inactive
MAPK8IP2 (mitogen-activated protein kinase 8 interacting protein 2) | 1 | 0.224 | 86.3 | 0.108 | 93.8 | inactive
MAPK8IP2 (mitogen-activated protein kinase 8 interacting protein 2) | 2 | -0.0945 | 80 | -0.592 | 104 | inactive
MAPK8IP2 (mitogen-activated protein kinase 8 interacting protein 2) | 3 | -1.64 | 49.3 | -1.32 | 78 | inactive
MAPRE3 (microtubule associated protein RP/EB family member 3) | 1 | -0.158 | 78.7 | 0.111 | 85.4 | inactive
MAPRE3 (microtubule associated protein RP/EB family member 3) | 2 | -0.329 | 75.4 | -0.508 | 96.2 | inactive
MAPRE3 (microtubule associated protein RP/EB family member 3) | 3 | 0.0261 | 82.4 | -0.279 | 99.1 | inactive
UBE2F (ubiquitin conjugating enzyme E2 F (putative)) | 1 | -0.153 | 78.8 | 0.0149 | 87.8 | inactive
UBE2F (ubiquitin conjugating enzyme E2 F (putative)) | 2 | -0.411 | 73.7 | -0.892 | 104 | inactive
UBE2F (ubiquitin conjugating enzyme E2 F (putative)) | 3 | -0.477 | 72.4 | -1.36 | 116 | inactive
ANGEL1 (angel homolog 1) | 1 | -0.101 | 79.9 | -0.829 | 111 | inactive
ANGEL1 (angel homolog 1) | 2 | -0.348 | 75 | 0.213 | 79.2 | inactive
ANGEL1 (angel homolog 1) | 3 | 0.171 | 85.3 | 0.256 | 89.1 | inactive

Ordered by “luciferase per cell, z-score” (high to low): 6 of the entries above
target | siRNA no. | total luciferase, z-score | total luciferase, % of control | luciferase per cell, z-score | viable cells, % of control | Outcome
EPN2 (epsin 2) | 3 | 0.206 | 86 | -0.167 | 100 | inactive
CSNK2A2 (casein kinase 2 alpha 2) | 3 | -0.535 | 71.3 | -0.193 | 83.8 | inactive
EPN2 (epsin 2) | 2 | -0.526 | 71.4 | -0.259 | 85.5 | inactive
FUT1 (fucosyltransferase 1 (H blood group)) | 1 | -0.344 | 75.1 | -0.291 | 90.5 | inactive
EPN2 (epsin 2) | 1 | -1.61 | 49.8 | -0.62 | 65.6 | inactive
FUT1 (fucosyltransferase 1 (H blood group)) | 2 | -2.1 | 40.1 | -1.84 | 72.8 | inactive

The results go on.
target | siRNA no. | total luciferase, z-score | total luciferase, % of control | luciferase per cell, z-score | viable cells, % of control | Outcome
ZNF860 (zinc finger protein 860) | 1 | -1.14 | 59.1 | -0.772 | 81 | inactive
ZNF860 (zinc finger protein 860) | 2 | 1.38 | 109 | 2.71 | 59.8 | inactive
ZNF860 (zinc finger protein 860) | 3 | -0.503 | 71.9 | 0.419 | 71.9 | inactive
ZNF860 (zinc finger protein 860) | 4 | -2.8 | 26.1 | -3.88 | 81.1 | inactive
ZNF860 (zinc finger protein 860) | 5 | -0.111 | 79.7 | -0.343 | 97.4 | inactive
ZNF860 (zinc finger protein 860) | 6 | -0.355 | 74.8 | 0.444 | 74.4 | inactive
CDKN1B (cyclin dependent kinase inhibitor 1B) | 1 | -0.478 | 72.4 | -0.604 | 94.8 | inactive
CDKN1B (cyclin dependent kinase inhibitor 1B) | 2 | -1.83 | 45.6 | -1.51 | 75.9 | inactive
CDKN1B (cyclin dependent kinase inhibitor 1B) | 3 | -0.946 | 63.1 | -1.09 | 93.8 | inactive
UBR4 (ubiquitin protein ligase E3 component n-recognin 4) | 1 | 1.33 | 108 | 0.473 | 107 | inactive
UBR4 (ubiquitin protein ligase E3 component n-recognin 4) | 2 | 1.02 | 102 | 0.321 | 105 | inactive
UBR4 (ubiquitin protein ligase E3 component n-recognin 4) | 3 | -0.0882 | 80.1 | -0.598 | 105 | inactive
MICB (MHC class I polypeptide-related sequence B) | 1 | 0.472 | 91.3 | 0.0784 | 99.9 | inactive
MICB (MHC class I polypeptide-related sequence B) | 2 | -0.141 | 79.1 | -0.209 | 93.4 | inactive
MICB (MHC class I polypeptide-related sequence B) | 3 | 0.545 | 92.7 | 2.06 | 60.3 | inactive
DEGS2 (delta 4-desaturase, sphingolipid 2) | 1 | -1.77 | 46.8 | -1.31 | 73.8 | inactive
DEGS2 (delta 4-desaturase, sphingolipid 2) | 2 | -0.46 | 72.7 | -0.522 | 93.2 | inactive
DEGS2 (delta 4-desaturase, sphingolipid 2) | 3 | -0.232 | 77.3 | -0.379 | 95.4 | inactive
PRP4K (pre-mRNA processing factor kinase PRP4K) | 1 | -0.5 | 71.9 | -0.254 | 86 | inactive
PRP4K (pre-mRNA processing factor kinase PRP4K) | 2 | 1.83 | 118 | 0.898 | 104 | inactive
PRP4K (pre-mRNA processing factor kinase PRP4K) | 3 | 1.48 | 111 | 1.3 | 88.3 | inactive
SRGAP2C (SLIT-ROBO Rho GTPase activating protein 2C) | 1 | 1.63 | 114 | 1.36 | 89.3 | inactive
SRGAP2C (SLIT-ROBO Rho GTPase activating protein 2C) | 2 | 0.18 | 85.5 | 0.168 | 91.4 | inactive
SRGAP2C (SLIT-ROBO Rho GTPase activating protein 2C) | 3 | -0.587 | 70.2 | 1.73 | 49.7 | inactive
OR2V2 (olfactory receptor family 2 subfamily V member 2) | 1 | -0.478 | 72.4 | -0.895 | 102 | inactive
OR2V2 (olfactory receptor family 2 subfamily V member 2) | 2 | 1.5 | 112 | 1.68 | 80.3 | inactive
OR2V2 (olfactory receptor family 2 subfamily V member 2) | 3 | -3.14 | 19.4 | -2.29 | 39.6 | inactive
